Among all 330,000 compounds or so, about 7,700 (2.3%) were called active. The inconclusive results got no clear call from the source; some entries with a clear call stand among them for comparison. Calls follow the shape of the dose curve; as a rule, active = well fitted inhibition curve with a large enough effect; inconclusive = small, poorly fitted or top-dose-only effect, or effect the other way; inactive = flat fitted curve, though single readings scatter. Potencies beside an inconclusive call are fits to weak or partial responses and may not hold up.
assay: qHTS screen for small molecules that inhibit ELG1-dependent DNA repair in human embryonic kidney (HEK293T) cells expressing luciferase-tagged ELG1; conditions: HEK293T ELG1-luciferase reporter, luminescence, 16 h, DNA damage induced by 5-fluorouridine; activity change, negative = inhibition: at 46.1 µM (top of the series); also: nearly all actives have a fitted effect of over 55% in size
How it was run: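 Luminescence from the luciferase reporter, measured 30 min after ONE-Glo reagent at room temperature, was the read-out. Beforehand, 2,000 cells per well were exposed for 16 hr at 37 °C to 5-fluorouridine together with compound or vehicle.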
% is scaled to controls: 0 for no effect and ±100 for the full control effect; potency is read from the fitted curve at half-maximal effect.

For `Cc1c(NC2(c3nnnn3-c3ccc(Br)cc3)CCCCC2)c(=O)n(-c2ccccc2)n1C`, which “activity change, negative = inhibition” value is on record?
The value was inactive: -0.109%.

For `CCc1cc(CNC(=O)CCc2nnc(Cc3cccc(C)c3)o2)on1`, which Potency is on record?
The Potency was inconclusive: 18.3 µM [activator, single point].

For `CCN(CC)C(=O)c1sc2nc(-c3ccc(OC)cc3)cn2c1C`, which Potency is on record?
The Potency was inconclusive: 7.31 µM [activator, partial curve].

With `COc1ccc(CNC(=O)CSc2nnc3c(n2)[nH]c2ccc(C)cc23)cc1` as the compound, how does the “activity change, negative = inhibition” value read?
The value was inactive: 1.62%.

For `O=c1oc2cc(O)ccc2cc1-c1nc2c(s1)CCc1ccccc1-2`, which Potency is on record?
The Potency was inconclusive: 29.1 µM [inhibitor, single point].

For `CC(C)OCCCNC(=O)c1cc(-c2cccs2)nc2ccccc12`, which Potency is on record?
Its Potency is inconclusive: 29.1 µM [inhibitor, single point].

For `COc1ccc(NS(=O)(=O)c2cccc(C(=O)O)c2)cc1S(=O)(=O)N1CCCCC1`, which Potency is on record?
The Potency was inconclusive: 29.1 µM [activator, partial curve, poor fit].

For `Cc1c(Br)ccc(NC(=O)Cn2nc(-c3cccs3)ccc2=O)c1C`, which Potency is on record?
The Potency was inconclusive: 9.2 µM [activator, partial curve, poor fit].

Which Potency does the source give for `Cc1ccc(NC(=O)CSCc2ccco2)cc1` here?
Its Potency is inconclusive: 10.3 µM [activator, partial curve].

For `COc1ccc(CCNC(=O)c2c(C)cc(=O)oc2C)cc1OC`, which Potency is on record?
Its Potency is inconclusive: 6.31 µM [inhibitor, single point].

With `Clc1ccc(C2Nc3cccc4cccc(c34)N2)cc1` as the compound, how does the Potency read?
The Potency was inconclusive: 0.517 µM [activator, single point].

For `Fc1ccc(N2CCN(c3ncnc4nc[nH]c34)CC2)cc1`, which Potency is on record?
Its Potency is inconclusive: 13 µM [activator, partial curve, poor fit].

For `CC1CN(CC(=O)Nc2cccc(C(=O)Nc3cccc(C(F)(F)F)c3)c2)CC(C)O1` (stereo not given), which Potency is on record?
Its Potency is inconclusive: 23.1 µM [inhibitor, single point].

For `Cc1ccc2[nH]c3c(c2c1)SC(C)(C)CC3=O`, which “activity change, negative = inhibition” value is on record?
Its value is inactive: -2.84%.

Which Potency does the source give for `CCn1cnc2cc(NCc3ccc(Br)cc3)ccc21` here?
Its Potency is inconclusive: 10.3 µM [activator, partial curve].

With `COc1ccc(C(=O)N2CCCC(CCC(=O)NCc3ccc(F)c(F)c3)C2)o1` (stereo not given) as the compound, how does the Potency read?
Its Potency is inconclusive: 18.3 µM [activator, single point].

Which “activity change, negative = inhibition” value does the source give for `CN(C)C(=O)CN1CCN(Cc2cn(C)nc2-c2ccc3c(c2)OCCO3)CC1` here?
The value was inactive: 10.2%.

With `COc1c(O)cccc1/C=N/NC(=O)Cn1ccnc1C` as the compound, how does the Potency read?
The Potency was active: 23.1 µM.

Which “activity change, negative = inhibition” value does the source give for `COc1ccc(N(CC(=O)N/N=C/c2cccnc2)S(=O)(=O)c2ccc(C)cc2)cc1OC` here?
Its value is inactive: 1.73%.

Which Potency does the source give for `CON(c1nc(Cl)nc(N(C)C)n1)S(=O)(=O)c1ccc(C)cc1` here?
Its Potency is inconclusive: 29.1 µM [inhibitor, single point].

With `CCOC(=O)COc1c(Cl)cc(C2NC(=S)NC(c3ccccc3)=C2C(C)=O)cc1OC` (stereo not given) as the compound, how does the “activity change, negative = inhibition” value read?
Its value is inactive: -17.8%.

For `O=C(CCNS(=O)(=O)c1ccc(Br)cc1)NCCCSc1ccccc1`, which Potency is on record?
Its Potency is inconclusive: 35.5 µM [inhibitor, partial curve, poor fit].

Which Potency does the source give for `CC1(C(=O)NCCN2CCOCC2)C=CC2(CCCCC2)N1C(=O)c1ccccc1` (stereo not given) here?
Its Potency is inconclusive: 16.4 µM [activator, single point].

For `COc1cc(NC(=O)c2cc3nc(C)cc(C)n3n2)c(OC)cc1Cl`, which Potency is on record?
Its Potency is inconclusive: 2.31 µM [activator, partial curve].

Which “activity change, negative = inhibition” value does the source give for `CC(=O)Oc1ccc(C(=O)[C@H]2[C@H]3C(=O)N(c4ccc(C)cc4C)C(=O)[C@H]3[C@@H]3C=CC=NN32)cc1` here?
Its value is inactive: -7.53%.

With `Cc1cc(-c2nnc(CCC(=O)NC(c3ccccc3)c3ccccc3)o2)no1` as the compound, how does the Potency read?
The Potency was inconclusive: 23.1 µM [activator, partial curve].

For `O=C(Nc1cccc(F)c1)N1CCC(c2ccccc2)CC1`, which Potency is on record?
The Potency was inconclusive: 2.31 µM [activator, full curve, poor fit].

For `CCn1c(CCNC(=O)c2ccc(C)cc2)n[nH]c1=S`, which “activity change, negative = inhibition” value is on record?
Its value is inactive: 4.43%.

Which “activity change, negative = inhibition” value does the source give for `Cc1ccc2sc3ccc(NC(=O)c4ccccc4Cl)cc3c(=O)c2c1` here?
Its value is inactive: -7.6%.

With `Brc1cccc(-c2nc(-c3ccncc3)no2)c1` as the compound, how does the Potency read?
The Potency was inconclusive: 16.4 µM [activator, partial curve].

Which Potency does the source give for `COC(=O)c1sc2ccccc2c1NC(=O)c1ccc(S(=O)(=O)N2CCC(C)CC2)cc1` here?
Its Potency is inconclusive: 20.6 µM [inhibitor, partial curve].

Which “activity change, negative = inhibition” value does the source give for `COc1ccc(C(=O)CCS(=O)(=O)c2ccc(F)cc2)cc1OC` here?
The value was inactive: -5.22%.

For `CC(C)NC(=O)/C(C#N)=C\c1ccc(N(C)C)o1`, which Potency is on record?
The Potency was inconclusive: 23.1 µM [inhibitor, single point].

Which “activity change, negative = inhibition” value does the source give for `Cc1ccc(CNC(=O)CSc2nc3[nH]ncc3c(=O)[nH]2)cc1` here?
Its value is inactive: 19.2%.

Which Potency does the source give for `COc1ccc(C(=O)/C=C/c2cc(C(=O)O)cc3c2OCOC3)c(O)c1` here?
The Potency was inconclusive: 2.59 µM [activator, partial curve, poor fit].

With `CCN(C#N)c1nc(NC(C)C)nc(NC(C)C)n1` as the compound, how does the “activity change, negative = inhibition” value read?
Its value is inactive: 6.82%.

For `C[N+]1(CCCCSc2ccc(O)cc2)CCCCC1`, which “activity change, negative = inhibition” value is on record?
Its value is inactive: -1.59%.

For `Cn1ccc2cc3c(cc21)CCN3C(=O)Nc1cccnc1`, which Potency is on record?
The Potency was inconclusive: 5.62 µM [activator, single point].

Which Potency does the source give for `CCSc1nnc(NC(=O)c2cc(OC)c(OC)c(OC)c2)s1` here?
Its Potency is inconclusive: 20.6 µM [activator, single point].

Which Potency does the source give for `CCOc1cc(/C=N/NC(=O)c2ccccc2-n2cccc2)ccc1O` here?
The Potency was inconclusive: 22.4 µM [inhibitor, single point].

Which Potency does the source give for `c1ccc(-c2noc(-c3ccc4c(c3)OCO4)n2)nc1` here?
The Potency was inconclusive: 0.461 µM [activator, partial curve, poor fit].

With `Cc1ccc(NC(=O)c2c(F)cccc2Cl)cc1NS(C)(=O)=O` as the compound, how does the “activity change, negative = inhibition” value read?
Its value is inactive: 1.77%.

For `COc1ccc(/C=N/NC(=O)Nc2ccc3nsnc3c2)c(OC)c1`, which Potency is on record?
Its Potency is inconclusive: 23.1 µM [activator, partial curve, poor fit].

With `CCS(=O)(=O)c1ncc(Cl)c(C(=O)Nc2ccc(C)cc2)n1` as the compound, how does the Potency read?
Its Potency is inconclusive: 25.9 µM [inhibitor, single point].

With `Nc1ccc2nc(-c3cccc(-c4nc5ccc(N)cc5[nH]4)n3)[nH]c2c1` as the compound, how does the “activity change, negative = inhibition” value read?
Its value is inactive: 1.71%.

With `CC(C)(C)OC(=O)NCCCCCNC(=O)c1[nH]cnc1C(=O)Nc1ccc(Cl)cc1` as the compound, how does the Potency read?
Its Potency is active: 20.6 µM.

For `COc1cccc(/C=N/NC(=O)CNC(=O)c2ccco2)c1O`, which Potency is on record?
The Potency was active: 8.2 µM.

For `O=C(N/N=C/c1ccc[nH]1)c1ccncc1`, which “activity change, negative = inhibition” value is on record?
Its value is inactive: 16.7%.

Which Potency does the source give for `Cc1[nH]n(-c2ccc([N+](=O)[O-])cc2)c(=O)c1C=NCC1CCCO1` (stereo not given) here?
The Potency was inconclusive: 20.6 µM [activator, partial curve].

Which Potency does the source give for `O=C(CN1C(=O)NC2(CCCC2)C1=O)OCCOc1ccc(Cl)cc1` here?
The Potency was inconclusive: 1.83 µM [inhibitor, partial curve, poor fit].

For `O=C(COC(=O)c1nc(Cl)ccc1Cl)NCc1ccc(Cl)cc1`, which “activity change, negative = inhibition” value is on record?
Its value is inactive: -0.894%.

Which Potency does the source give for `CCOC(=O)c1nc(Nc2ccc(C(C)=O)cc2)c2ccccc2n1` here?
Its Potency is active: 1.64 µM.

For `Cc1[nH]c2ccccc2c1C(=O)COC(=O)C(C)C`, which “activity change, negative = inhibition” value is on record?
The value was inactive: 13.3%.

For `COc1cccc(/C=N/Nc2ncnc3c2ncn3Cc2ccccc2)c1O`, which Potency is on record?
Its Potency is inconclusive: 6.51 µM [inhibitor, partial curve, poor fit].

For `COC(=O)[C@]1(Cc2ccccc2)N[C@H](CN(C)C(=O)C2CCCCC2)[C@@H]2C(=O)N(C)C(=O)[C@@H]21`, which “activity change, negative = inhibition” value is on record?
Its value is inactive: 0.486%.

Which Potency does the source give for `CCCn1cc(SCC(=O)NCC2CCCO2)c2ccccc21` (stereo not given) here?
Its Potency is inconclusive: 29.1 µM [activator, single point].

With `O=c1oc(-c2ccccc2)nc2ccsc12` as the compound, how does the Potency read?
Its Potency is inconclusive: 20.6 µM [activator, single point].

For `CC(C)(C)C(=O)Nc1ccc2oc(-c3cc(F)c(F)cc3Cl)nc2c1`, which Potency is on record?
Its Potency is inconclusive: 7.31 µM [activator, partial curve].

For `COc1ccc(/C=N/NC(=O)C(=O)N2CCCCCC2)cc1[N+](=O)[O-]`, which Potency is on record?
The Potency was inconclusive: 20.6 µM [activator, single point].

Which Potency does the source give for `Cc1cnc(C(=O)NCCc2ccc(Cl)cc2)cn1` here?
The Potency was inconclusive: 9.2 µM [activator, partial curve].

Which activity change, negative = inhibition does the source give for `CCCCc1nc2sc3c(c2c(=O)n1NC(=O)c1ccco1)CC(C)(C)OC3` here?
Its activity change, negative = inhibition is inconclusive: 16.1% [activator].

For `O=C(Nc1ccc(S(=O)(=O)N2CCOCC2)cc1)C1CCN(S(=O)(=O)c2ccc(F)cc2)CC1`, which Potency is on record?
Its Potency is inconclusive: 20.6 µM [inhibitor, single point].

For `CC1(C)CC(=O)C2=C(C1)OC(N)=C(C#N)C2c1ccoc1` (stereo not given), which “activity change, negative = inhibition” value is on record?
Its value is inactive: -1.94%.

Which Potency does the source give for `Clc1cccc(-c2nc(-c3ccc(-c4nn[nH]n4)cc3)no2)c1` here?
The Potency was inconclusive: 18.3 µM [activator, partial curve].

With `CC(SC1=NCCS1)C(=O)Nc1nnc(-c2ccc(Cl)cc2)s1` (stereo not given) as the compound, how does the Potency read?
The Potency was inconclusive: 20.6 µM [activator, partial curve].

For `Cc1cccc(Nc2nnc(-c3ccc(C(=O)N4C[C@H]5C[C@H](C4)c4cccc(=O)n4C5)cc3)c3ccccc23)c1`, which Potency is on record?
The Potency was inconclusive: 4.61 µM [inhibitor, single point].

For `N#C/C(=C/c1ccc(N2CCCC2)c([N+](=O)[O-])c1)c1nc2ccccc2[nH]1`, which Potency is on record?
The Potency was inconclusive: 2.59 µM [activator, single point].

With `CN(C)CCCn1c2c(c(SCC(=O)Nc3cccc4ccccc34)nc1=O)CCCC2` as the compound, how does the “activity change, negative = inhibition” value read?
The value was inactive: 12.3%.

With `CCn1c(SCC(=O)c2cc(OC)ccc2OC)nc2c1c(=O)n(C)c(=O)n2C` as the compound, how does the “activity change, negative = inhibition” value read?
Its value is inactive: -16.2%.

With `CC1CCCCN1CCNC(=O)c1ccc2c(c1)N(Cc1cccc(Cl)c1)C(=O)c1ccccc1S2=O` (stereo not given) as the compound, how does the Potency read?
Its Potency is inconclusive: 18.3 µM [activator, single point].

Source: PubChem BioAssay AID504467 (National Center for Advancing Translational Sciences (NCATS), 2011)
